Data from paper PMC4423933.
Results are given in words; binding and its absence hold for the method and conditions named. Binding seen in cells or lysates may run through a third protein. A result given as binding can be weak or reduced; the word gives no strength.

Target: GST-Rim (Rab3-interacting molecule) (amino acids 1-399) fusion protein
Test: pull-down; GST fusion of an effector domain as bait; isolated acini of wild-type or ashen mice at basal level; pulldown fractions analysed by western blot; only the target purified

B1: Rab3D (protein, UniProt P35276 1-219)
chain: MASASEPPASPRDAADQNFDYMFKLLLIGNSSVGKTSFLFRYADDSFTPAFVSTVGIDFKVKTVYRHDKRIKLQIWDTAGQERYRTITTAYYRGAMGFLLMYDIANQESFTAVQDWATQIKTYSWDNAQVILVGNKCDLEDERVVPAEDGRRLADDLGFEFFEASAKENINVKQVFERLVDIICDKMNESLEPSSSPGSNGKGPALGDTPPPQPSSCSC
binding: binds
